Drawing on PubChem BioAssay AID588463 (National Center for Advancing Translational Sciences (NCATS), 2011), this text covers activation for 23 molecules.

About 15 (1%) of roughly 1,200 compounds were called active. Roughly 7% stayed inconclusive and do not appear here. Calls follow the shape of the dose curve; as a rule, active = well fitted activation curve with a large enough effect; inconclusive = small, poorly fitted or top-dose-only effect; inactive = flat fitted curve, though single readings scatter. Some of the results follow.

For the experiment, the target named is Beta-2 adrenergic receptor (Homo sapiens) (UniProt P07550). The experiment is described as follows: qHTS assay of beta-arrestin-biased ligands of beta2-adrenergic receptor: Hit Validation.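 Also: plate controls were DMSO for no effect and maximal isoproterenol or metaproterenol response for full effect.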 The following applies: cell-based beta-arrestin recruitment to beta2AR; at 46.1 µM (top of the series). From the text: The concept of biased agonism is an emerging concept of molecular pharmacology which proposes that seven transmembrane receptors (7TMRs) or G protein-coupled receptors (GPCRs), exist in multiple signaling conformations and complexes and that ligands (either agonists or antagonists) can induce signaling biased responses for distinct signal transduction cascades.
Furthermore, accumulating evidence over the last decade has drawn attention to a novel function of beta-arrestins as signal transducers that scaffold various signaling molecules upon activation of 7TMRs. […] This beta-arrestin-biased signaling presumably leads to distinct physiological outcomes from those by G protein activation.
Additionally, the active receptor conformations which […] on this beta-arrestin signaling are likely different from those activating G protein signaling
The goal of this screening project will be to discover and optimize novel beta-arrestin-biased ligands for beta2-AR signaling. A luminescent cell-based assay for beta2-AR-mediated agonism, known as the Tango assay, has been validated in which ligand binding of a recombinant beta2-AR and subsequent recruitment of a recombinant beta-arrestin lead to the release of the transcriptional activator tTA, which upregulates transcription of a tTA-responsive luciferase gene.
NIH Molecular Libraries Probe Production Network [MLPCN]
NIH Chemical Genomics Center [NCGC]
PI: Bryan Roth (UNC) and Bob Lefkowitz (Duke)
NCGC Assay Protocol Summary:
Tango cells were dispensed into white, solid, tissue-culture-treated 1536-well plates at 1500 cells/well in DMEM, containing 1% fetal bovine serum (FBS). Then, 23 nL of compounds or DMSO were delivered to each well using a pin tool. Plates were incubated at 37 degrees C, 5% CO2 for 18 hr. Then 2.5 uL luminescent substrate mix (in-house prepared: 150 mM Tris-Cl, pH 7.6, 3 mM MgCl2, 1% Triton X-100, 5 mM DTT, 0.5 mM CoA, 0.15 mM ATP, 0.44 mM D-luciferin, final concentrations) was added to each well. Plates were then incubated for 15 minutes at room temperature, and subsequently measured on a ViewLux plate reader for luminescent signal using a clear filter with a 10 second exposure and 2x binning. The %Activity was determined from the corrected luminescence values.
Concentration-response curves were fitted to the signals arising from the resulting luminescence. The concentration-effect curves were then classified based on curve quality (r2), response magnitude and degree of measured activity, and compounds were subsequently categorized based on their curve class.
Keywords: biased agonism, beta2-AR, beta-arrestin, GPCR, 7TMR, Tango, luminescence, MLSMR, MLPCN, NIH Roadmap, qHTS, NCGC
`Clc1ccc2c(c1)C(c1ccccc1Cl)=NCc1nnc(N3CCN(CCOc4ccccc4)CC3)n1-2`: the activation is inactive: -1.81%.
Then `COC(=O)C1=C(c2ccc(OCc3ccccc3)cc2)C[C@@H]2CC[C@H]1N2C(=O)NCc1cccc(C(F)(F)F)c1`, with inactive: 8.26%; and `O=C1NC(=O)N(Cc2ccc(F)cc2)C(=O)/C1=C\C=C\c1ccco1`, with inactive: -3.42%; and `COc1cccc(C(=O)C2CCCN(Cc3cccc(C)n3)C2)c1` (stereo not drawn), with inactive: -1.28%.
As for `S=C=Nc1cccc(C2(N3CCCCC3)CCCCC2)c1`, the activation was inactive: 4.58%.
Next, `c1cncc(C2Nc3cccc4cccc(c34)N2)c1`: inactive: -3.29%; `COC(=O)C1=C(c2ccc(-c3ccccc3)c(F)c2)C[C@@H]2CC[C@H]1N2C(=O)NCCOc1ccc(OC)cc1`: inactive: 6.35%.
`COC(=O)C1=C(c2ccc(-c3ccccc3)c(F)c2)C[C@@H]2CC[C@H]1N2C(=O)NCc1ccco1`: the activation is inactive: 6.91%.
Next, `CC(=O)c1ccc2c(c1)C1C(Cl)C(Sc3ccccc3[N+](=O)[O-])CC1C(c1ccccc1)N2` (stereo not drawn): inactive: -3.37%; `COC(=O)OCC12CCC(O1)C1(C)C(=O)OCC21` (stereo not drawn): inactive: -3.25%; `COC(=O)C1=C(c2ccc(OC)c(OC)c2)C[C@@H]2CC[C@H]1N2C(=O)NCc1cccc2ccccc12`: inactive: 8.39%.
Then `Cc1ccc(N2C(=O)NC(=O)/C(=C/C=C/c3ccco3)C2=O)cc1`, with inactive: -2.96%; and `CCCCn1c(=O)c(C(=O)NCc2ccncc2)c(O)c2ccccc21`, with inactive: 0.0024%; and `OC12ONC(c3ccccn3)C1N1CCC2CC1` (stereo not drawn), with inactive: -3.98%.
As for `C[C@]12CC[C@H](O)CC1=CC(=O)C1C2CC[C@]2(C)C(=O)[C@H](O)CC12` (stereo partly drawn), the activation is inactive: -2.33%.
In the case of `O=C1NC(=O)N(Cc2ccccc2)C(=O)/C1=C/C=C/c1ccco1`, the activation was inactive: -3.42%.
Then `COC(=O)C1=C(c2ccc(F)cc2F)C[C@@H]2CC[C@H]1N2C(=O)NCCNC(C)=O`, with inactive: -3.3%; and `Cc1cc(C)cc(N2C(=O)NC(=O)/C(=C\C=C\c3ccco3)C2=O)c1`, with inactive: -5.11%.
For `O=c1c2ccccc2nc(/C=C/c2ccc(O)c(O)c2)n1-c1ccccc1`, the activation is inactive: 4.46%.
Next, `N#Cc1c(Cl)nc(Cl)c2c1CCN(Cc1ccccc1)C2`: inactive: -2.03%; `CN1CCN(C(=O)COc2ccc(S(=O)(=O)Nc3ccc(F)cc3)cc2)CC1`: inactive: -1.99%.
Next, `COc1cccc(OCc2cc(C(=O)N3C[C@H]4C[C@@H](C3)c3cccc(=O)n3C4)no2)c1`: inactive: -4.83%; `O=C(NCCCN1CCOCC1)C(Cl)(Cl)Cl`: inactive: -1.68%.
